Measured values reported in paper PMC8629386.

By UniProt entry, the sequences of proteins in these tests, tags left out. Where a name states a change or a piece, a line headed by the entry shows the natural chain unless it says otherwise.
UniProt Q8I1T8: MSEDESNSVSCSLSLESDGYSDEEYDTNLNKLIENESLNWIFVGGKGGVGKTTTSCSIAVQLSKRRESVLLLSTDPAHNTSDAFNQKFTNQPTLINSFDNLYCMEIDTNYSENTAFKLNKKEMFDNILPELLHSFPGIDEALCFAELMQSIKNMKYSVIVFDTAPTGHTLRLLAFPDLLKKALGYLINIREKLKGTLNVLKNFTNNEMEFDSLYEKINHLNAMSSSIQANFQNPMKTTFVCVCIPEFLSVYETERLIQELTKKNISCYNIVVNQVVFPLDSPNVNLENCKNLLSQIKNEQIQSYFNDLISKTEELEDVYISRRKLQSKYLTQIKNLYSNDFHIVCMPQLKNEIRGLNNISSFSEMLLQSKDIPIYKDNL
UniProt Q8I5D0: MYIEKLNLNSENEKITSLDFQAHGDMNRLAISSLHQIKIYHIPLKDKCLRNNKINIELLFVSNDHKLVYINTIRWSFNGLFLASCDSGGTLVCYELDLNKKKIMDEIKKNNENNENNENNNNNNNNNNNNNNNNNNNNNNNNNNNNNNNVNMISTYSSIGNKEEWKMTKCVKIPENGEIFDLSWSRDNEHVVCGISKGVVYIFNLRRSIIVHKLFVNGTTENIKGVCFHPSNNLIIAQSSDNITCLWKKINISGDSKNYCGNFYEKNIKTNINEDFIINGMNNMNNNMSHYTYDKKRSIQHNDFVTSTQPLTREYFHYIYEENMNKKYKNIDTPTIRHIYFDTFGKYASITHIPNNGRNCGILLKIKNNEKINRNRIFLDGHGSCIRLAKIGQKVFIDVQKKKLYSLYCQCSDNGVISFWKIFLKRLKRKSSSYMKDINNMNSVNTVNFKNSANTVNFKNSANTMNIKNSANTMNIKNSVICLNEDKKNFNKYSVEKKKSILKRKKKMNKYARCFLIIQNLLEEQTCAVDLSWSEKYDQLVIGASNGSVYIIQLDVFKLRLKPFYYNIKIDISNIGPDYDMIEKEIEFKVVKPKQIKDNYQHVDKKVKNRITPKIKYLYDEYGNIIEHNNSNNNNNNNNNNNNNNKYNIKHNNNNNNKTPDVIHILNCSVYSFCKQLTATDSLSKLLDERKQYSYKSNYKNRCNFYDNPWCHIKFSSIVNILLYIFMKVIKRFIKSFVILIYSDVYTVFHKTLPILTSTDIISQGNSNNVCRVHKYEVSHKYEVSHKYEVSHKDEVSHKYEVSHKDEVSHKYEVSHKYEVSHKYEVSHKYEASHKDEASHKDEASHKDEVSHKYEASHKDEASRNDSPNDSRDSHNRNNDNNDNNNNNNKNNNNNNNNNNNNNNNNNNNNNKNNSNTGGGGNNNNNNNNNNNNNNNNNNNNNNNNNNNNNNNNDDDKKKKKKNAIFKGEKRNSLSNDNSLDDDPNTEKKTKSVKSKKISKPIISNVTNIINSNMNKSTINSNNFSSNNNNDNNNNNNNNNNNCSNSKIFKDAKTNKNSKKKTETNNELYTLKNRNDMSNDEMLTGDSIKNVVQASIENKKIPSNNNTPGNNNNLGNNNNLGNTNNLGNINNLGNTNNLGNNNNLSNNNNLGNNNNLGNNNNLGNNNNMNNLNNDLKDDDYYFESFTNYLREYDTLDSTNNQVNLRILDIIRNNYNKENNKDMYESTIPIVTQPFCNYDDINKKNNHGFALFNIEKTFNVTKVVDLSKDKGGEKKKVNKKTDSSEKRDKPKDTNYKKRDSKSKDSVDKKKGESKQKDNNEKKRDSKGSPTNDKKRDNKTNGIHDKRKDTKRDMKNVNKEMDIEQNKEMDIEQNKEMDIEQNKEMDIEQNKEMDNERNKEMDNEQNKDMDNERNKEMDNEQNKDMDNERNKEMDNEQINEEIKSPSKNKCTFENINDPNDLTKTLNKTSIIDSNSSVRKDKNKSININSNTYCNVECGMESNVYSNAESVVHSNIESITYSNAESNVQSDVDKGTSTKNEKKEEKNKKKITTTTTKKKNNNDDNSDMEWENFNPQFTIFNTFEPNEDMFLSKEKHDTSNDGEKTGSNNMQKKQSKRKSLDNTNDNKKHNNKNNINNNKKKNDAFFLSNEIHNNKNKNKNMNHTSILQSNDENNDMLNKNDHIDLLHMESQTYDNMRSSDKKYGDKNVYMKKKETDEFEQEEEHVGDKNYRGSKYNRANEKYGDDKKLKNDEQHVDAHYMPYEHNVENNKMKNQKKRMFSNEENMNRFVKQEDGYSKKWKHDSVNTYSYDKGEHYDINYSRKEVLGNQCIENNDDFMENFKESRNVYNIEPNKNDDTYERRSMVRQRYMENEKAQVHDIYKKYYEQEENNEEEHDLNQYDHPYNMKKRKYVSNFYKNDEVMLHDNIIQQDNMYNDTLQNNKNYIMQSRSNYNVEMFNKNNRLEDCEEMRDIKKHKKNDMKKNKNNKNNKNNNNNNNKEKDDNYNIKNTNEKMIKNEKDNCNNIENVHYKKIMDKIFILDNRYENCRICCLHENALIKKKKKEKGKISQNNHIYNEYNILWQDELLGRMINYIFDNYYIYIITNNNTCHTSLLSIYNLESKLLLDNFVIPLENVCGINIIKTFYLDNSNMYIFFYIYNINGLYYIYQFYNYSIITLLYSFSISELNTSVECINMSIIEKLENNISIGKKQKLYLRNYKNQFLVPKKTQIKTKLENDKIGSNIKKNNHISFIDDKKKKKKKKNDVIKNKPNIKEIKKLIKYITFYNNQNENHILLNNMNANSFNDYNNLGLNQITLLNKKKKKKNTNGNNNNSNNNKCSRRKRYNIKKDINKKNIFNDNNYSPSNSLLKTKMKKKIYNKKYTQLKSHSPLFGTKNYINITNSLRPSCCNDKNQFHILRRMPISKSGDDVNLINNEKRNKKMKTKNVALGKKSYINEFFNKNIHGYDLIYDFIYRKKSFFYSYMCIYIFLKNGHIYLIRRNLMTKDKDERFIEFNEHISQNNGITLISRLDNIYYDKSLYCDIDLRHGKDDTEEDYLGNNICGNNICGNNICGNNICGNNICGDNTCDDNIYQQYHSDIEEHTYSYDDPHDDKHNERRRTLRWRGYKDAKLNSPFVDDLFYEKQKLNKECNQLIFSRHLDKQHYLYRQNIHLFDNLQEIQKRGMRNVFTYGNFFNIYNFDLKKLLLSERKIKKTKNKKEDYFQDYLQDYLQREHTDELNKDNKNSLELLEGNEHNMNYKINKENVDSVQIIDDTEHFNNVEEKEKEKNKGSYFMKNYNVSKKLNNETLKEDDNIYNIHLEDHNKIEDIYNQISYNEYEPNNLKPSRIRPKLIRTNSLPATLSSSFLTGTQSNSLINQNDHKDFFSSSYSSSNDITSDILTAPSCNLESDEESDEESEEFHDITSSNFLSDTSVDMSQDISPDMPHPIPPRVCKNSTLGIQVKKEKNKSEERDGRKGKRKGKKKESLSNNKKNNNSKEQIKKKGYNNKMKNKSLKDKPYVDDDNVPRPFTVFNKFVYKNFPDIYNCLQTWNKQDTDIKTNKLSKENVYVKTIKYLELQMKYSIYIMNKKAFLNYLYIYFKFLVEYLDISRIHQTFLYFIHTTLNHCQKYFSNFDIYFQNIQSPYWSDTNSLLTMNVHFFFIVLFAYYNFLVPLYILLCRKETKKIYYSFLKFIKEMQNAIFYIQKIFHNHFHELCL
UniProt C0H4S2: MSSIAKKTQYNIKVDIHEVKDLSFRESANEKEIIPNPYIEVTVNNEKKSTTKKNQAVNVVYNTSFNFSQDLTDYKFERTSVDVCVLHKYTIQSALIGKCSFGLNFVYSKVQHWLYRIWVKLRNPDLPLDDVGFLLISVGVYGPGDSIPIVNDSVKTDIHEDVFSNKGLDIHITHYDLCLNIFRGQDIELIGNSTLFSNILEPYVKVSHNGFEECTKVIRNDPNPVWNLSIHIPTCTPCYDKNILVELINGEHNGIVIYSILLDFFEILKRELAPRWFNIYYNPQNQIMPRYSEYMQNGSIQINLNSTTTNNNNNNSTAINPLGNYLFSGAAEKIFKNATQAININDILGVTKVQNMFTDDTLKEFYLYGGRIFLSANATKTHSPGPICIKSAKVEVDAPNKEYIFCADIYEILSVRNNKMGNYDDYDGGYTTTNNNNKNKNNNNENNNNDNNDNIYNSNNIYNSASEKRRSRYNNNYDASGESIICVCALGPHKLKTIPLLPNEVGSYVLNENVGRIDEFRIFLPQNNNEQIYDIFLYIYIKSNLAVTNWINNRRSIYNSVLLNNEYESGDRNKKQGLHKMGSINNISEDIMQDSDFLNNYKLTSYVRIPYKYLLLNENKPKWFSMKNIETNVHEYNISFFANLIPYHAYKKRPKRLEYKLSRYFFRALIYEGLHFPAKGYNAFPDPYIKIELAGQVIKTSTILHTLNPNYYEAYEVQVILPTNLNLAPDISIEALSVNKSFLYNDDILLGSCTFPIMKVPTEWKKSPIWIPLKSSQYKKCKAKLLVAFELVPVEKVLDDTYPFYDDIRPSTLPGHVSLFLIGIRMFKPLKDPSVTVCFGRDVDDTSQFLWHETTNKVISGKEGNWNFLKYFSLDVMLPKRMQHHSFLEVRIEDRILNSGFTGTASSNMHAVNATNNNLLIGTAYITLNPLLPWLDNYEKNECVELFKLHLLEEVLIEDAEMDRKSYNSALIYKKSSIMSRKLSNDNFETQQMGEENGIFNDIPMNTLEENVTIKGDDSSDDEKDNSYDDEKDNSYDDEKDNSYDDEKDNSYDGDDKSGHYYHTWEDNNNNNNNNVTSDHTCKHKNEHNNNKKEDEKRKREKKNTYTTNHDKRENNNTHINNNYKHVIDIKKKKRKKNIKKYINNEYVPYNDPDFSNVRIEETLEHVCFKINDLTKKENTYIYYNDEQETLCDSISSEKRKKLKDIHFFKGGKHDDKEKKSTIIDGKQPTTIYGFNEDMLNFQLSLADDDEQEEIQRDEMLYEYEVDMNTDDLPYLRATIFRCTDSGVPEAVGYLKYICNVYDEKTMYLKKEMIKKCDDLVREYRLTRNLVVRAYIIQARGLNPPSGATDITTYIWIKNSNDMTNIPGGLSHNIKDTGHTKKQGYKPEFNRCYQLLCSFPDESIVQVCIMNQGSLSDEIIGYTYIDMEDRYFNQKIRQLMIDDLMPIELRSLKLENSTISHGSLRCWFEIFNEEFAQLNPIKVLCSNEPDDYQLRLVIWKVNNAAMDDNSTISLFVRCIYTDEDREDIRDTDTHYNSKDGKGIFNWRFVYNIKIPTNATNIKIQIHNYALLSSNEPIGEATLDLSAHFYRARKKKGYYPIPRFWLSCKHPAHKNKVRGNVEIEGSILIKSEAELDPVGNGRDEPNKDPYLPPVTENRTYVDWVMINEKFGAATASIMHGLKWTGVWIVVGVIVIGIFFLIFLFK

How the values were obtained:
[1] = biological target: PfGet3-BirA*-HA (P. falciparum 3D7) (UniProt Q8I1T8); assay: proximity labelling; BioID: transgenic P. falciparum 3D7 expressing PfGet3-BirA*-HA grown 48 h with 50 μg/ml D-biotin (BioID) or without (control); extract in 50 mM Tris.HCl pH 7.5, 500 mM NaCl, 1% Triton-X-100; biotinylated proteins purified on StrepTactin XT; read by LC-MS/MS or western blot (anti-HA, anti-PfGet3)
[2] = biological target: PfGet3-BirA*-HA (P. falciparum 3D7) (UniProt Q8I1T8); assay: as above; remark: listed apart in the source

Row | Molecule | binding [1] | binding [2]
1 | native untagged PfGet3 (from UniProt Q8I1T8) | binds | –
2 | WD repeat-containing protein, putative (PF3D7_1228800) (from UniProt Q8I5D0 1-3209) | binds | –
3 | Ferlin-like protein, putative (PF3D7_0806300) (from UniProt C0H4S2 1-1704) | binds | –
4 | PfGet4 (PF3D7_1438600), endogenous (protein, UniProt Q8IL82 1-277) MKKFKFSKEKLAKEKIENGLHYEAHQLIKSIINRKLQKNQISNCISVIFYFSLKFATAEQYVLLCDLMYQCCLILTQHDIEFNLEYANKIIEIFQKCPPNSTEEKYKFMNKSILWSKSEENVYGYLEFHKVIGYAYFEDKQYSLAHNHFIYLDDNDILYEIICLWRKEAYPSESHFFVLRTILCLLVLDKFDQALNLINMFETNLNRQDVPLPIQLAYLITSSCIYKSLALYEDVKYKYRLILNYDPDFQKYINIIDAAVFNKKKHNLFSMFQNIFA | – | binds
5 | PfGet2 (PF3D7_0215600), endogenous (protein, UniProt O96235 1-403) MDKNTLKRRSRLLQKNEARMSMLLGRNLDDEISKEKKESNKNDKHKKNDQHKKNDKSNQNGEDNQNGEDNQNDESNQNDEHKKNDEHKKNDEHNQNDEHNQNDEHNQNDEHNQNDEHNQNDEHNQNDEHNQNDEHNQNDESNQNDKNRKEIPPKEEKDKENNPSVVMENNNNIRKDQDNKTSEHKSSTNIYNKDKNNDYNKLLDKDDNNNNNKNINKNDENDFTSINNDIPNKNKITSQFIITKHEKLHFIILIILCIFISIFKVYYNNKNNLIYKKKKKGNNNLNIVQMIFFNFINSPNFFFSFSVFYNILFLLIIMLMYIKKNNITRKRIQDFFVNMKNKLNNQNEHVFYFINNAVLCILFMGRIFKSYIISMFLINLFHDILHNYLIGVSMLQPQKVVLL | – | binds
6 | Protein transport protein BOS1, putative (PF3D7_1111300), endogenous (protein, UniProt Q8IIP9 1-289) MNKKYEPILDNELLSSNNENENFVNSKKKDNENDKIQDTSLNNIYGKIVKIRKELEKSYNLFYSYNLIVSNNKEHDPNSPYNNVYARSDIININNNTKNNLTLNKINALTNSFYMNVQTLKNTYSFINTNNVNNKIINNDNIIWERRIETLSNEANSYIKTLDNIYKTNLKQSEMKNNKKSNYTKSNKRHDGDDAINYLHKENEILKQVEDHLNIFHVQGMNTLNMLRKQNKFLKNVRKKVIDMYNYVGLSSSLVDTIKKAHKQNLIIVIVGIILSLIFFYVIYSYFKR | – | binds
7 | Guanine nucleotide-exchange factor SEC12 (PF3D7_1116400) (protein, UniProt Q8IIK2 1-485) MNEMKVSYLNYPIYGIGSNKDYVVTSGGGGGKNYGIEDMLDINIFNEKEKKLEVVWSTTEQRGVVDSIIYVEKYNIWLGSVKNECILFEINEETGPNILLTFVTDFNERNARQVVVKFSSKDDLILTGGEDKTLRLWKLNFVKREKENKDDIKGDNKKGNDNKTNEDNKKDNDKKTNEDKKKDNDNKTNEDKKKDNDNKTDDDNYIAVNNNLYLDKNKSVEHLGDFVGHDDSIKDCDISFDEKIVCTCSSDHSLKIWDTNSFVNLHTEQMKSPQNKNDKLNFRCCKFLNHSNSFKDFTYTLLTTAYTPRGSSYLIIWKVYYNDKKEQFTFTKDKFIWINDRPCCNIAVSTNQKFIALGFSTGALKIYNSKFYLLAHYKKHELPITAMCFIKDDNYLLSAGADYTISTLHINSFMFRYLRKFGRFIIYFLLLFFISIILLDSFNVGYDLRISSLFHNKAYTNITKKKRNYNVDPKKNKVIMDMDEL | – | binds
8 | Elongator complex protein 3, putative (PF3D7_1227800) (protein, UniProt Q8I5E0 1-1092) MIKFKIGRSNKKYEKKSNIDNNEENIKESCDDNILNDQVATDLNSEELNEKNYINEILDESSEDDGNVINSSYEENKKTKNKEESYYYINDAIKRNYPLEYEDNKIYPKVYCYEPTNFENFKKKIKNKNELRHYECYSSTMNEFFYKYNENYYDDILKNESFKKFAEELWSNRSNIKTDQQYQDLCVQLRKKYKISPSKHQISVALQHHYLQSLDDDKKDMESIIELQKNSDHISDINDMDNIIAVDNTNRVDNMNKHDSSHVDETNAPSEEDEFMINKKGKDVKFVLENVNKMIITKEMKNYKDLDKESVHFLQINKRKGVRSNSGVLVVTIITHPHKFSCKYDCHYCPNEPNQPRSYLSTEPAILRANQNNFDVICQFFNRTTTLVNNGHVADKIEVLVLGGTWSCYDIAYQEEFIRDVYYAANIYPVLKDRRKKLTLKEEQEINEKSNCRIIGLTLETRPDQINKDELLRLRYYGCTRVQLGIQHIDDVILKKVNRQCTLKDCIRAIYLLKENGFKVDIHLMPDLPYSDVYKDIHMFKYVLSSTDLQADQWKIYPCEITPFTKIEKWYNNNEYKPYFETNKNLLISVILLVKKSIHPWIRLNRVIRDIPNPSIIAGNNITNMRQLIANEMNIRNIFCQCIRCKEVKNQEIEKKSDSIFLRIYKYPTLGGDEYFITFQGRKKVVNHHGKKNKKNKKSKTSKKDNLNQKYNDEQMKEKDNNKKIQNKNNVNNDNNSNNNYYSDSNGHLSSTSNVLENMETFFNQHETENNQINHSHNTQYEHSGASQNNINSEQSGASQKNKNSEQSGANPENVHNTNVPQNKMDTEIPIDHNIYEDYDNEYSLLGFLRLRLRKKNNYCDDRPFKCLENSALIRELHVYGSLLKHDDFKDELNFIQHKGLGKCLVLVAEIISYFYNYKKVSIIAGVGTREYYKKLGYTKEETYVTKILKREEIYKNYLLNIDRIGKTILIHEYNLKHCLYLMHKEIPEPSKYKRTEITNLNSYINENILHSSDMKNYLVHKKKCTTSSINVQRLLETETNQIVNILWNQFNKWSLDFLIKNRLIFNVSTIVFFSSTFLFTIQFFKKRNINT | – | binds
9 | Deoxyhypusine synthase (PF3D7_1412600) (protein, UniProt Q8ILW8 1-496) MVDHVSFKEVNKIRSDDECDADSHNEGDNIEDAKASVFVKSSLIPEKTDVVKGLNFDKEVDLHEFINNYKYMGFQATNLGISIDEINKMIYYKYKDENIKSEPNNENNLNCNNVSEDLNKDQENHLYHYEKKKKSCIIWLSFTSNMISSGLREIFVYLAKNKFIDVVVTTAGGIEEDIIKCFSNTYIGDFNLNGKKLRKKGWNRIGNLIVPNDNYCKFEDWLQPILNKMLHEQNEKNEQMFLKKLEKRKKKYNNNKNKNDNNNDNDNVWGNEKNDQNQNQYNQGQESFKKDSNIYTNDVSNKKNHINNYINNYDSDSDDQCDMYYLSPSEFINTLGKEINDESSLIYWCYKNDIPIFCPGLTDGSLGDNLFFHNYGKKIKNNLILDIVKDIKKINSLAMNCEKSGIIILGGGLPKHHVCNANLMRNGADFAVYVNTASEYDGSDSGANTTEALSWGKIKYGQTNNHVKVFGDATILFPLMVLNSFYLYDQKRKKDM | – | binds

Read-outs that look alike come from different tables or passages of the source. No constants are given. Whether binding was seen depends on the method and setting. In cells and extracts the contact can be indirect. A yes stands for co-enrichment or nearness to the bait. Other partners may have been found.
